Test systems include Protein FAM63B (human); Protein FAM73B (human); Protein NOXP20 (human); Protein Niban (human); Protein OSCP1 (human); Protein PPRC1 (human); Protein TEX261 (human); Protein URG4 (human); Protein reprimo (human); Protein ripply1 (human); Protein shisa-4 (human).
Common to all, as to assay: protein microarray (ProtoArray v5.0), streptavidin-Alexa Fluor 647
Holding throughout (conditions): 3'-biotin; 20 mM Tris (pH 7.5), 5 mM MgCl2, 100 mM KCl, 0.1% Tween-20, A/T-rich and random oligonucleotide blockers; temperature not stated; high values mean tight binding

The subject of assay [1] is Protein SCO2 homolog, mitochondrial (human).
In assay [2] the test system is Protein arginine N-methyltransferase 6 (human).
Assay [3] relates to Protein fuzzy homolog (human).
The test system of assay [4] is Protein phosphatase 1 regulatory subunit 16A (human).
The test system of assay [5] is Protein phosphatase 1L (human).
The test system of assay [6] is Protein phosphatase Slingshot homolog 3 (human).
Assay [7] deals with Protein transport protein Sec61 subunit alpha isoform 1 (human).
Assay [8] deals with Protein tyrosine kinase 2 beta (human).
The test system of assay [9] is Protein tyrosine phosphatase receptor type C-associated protein (human).

Values joined by “and” are separate entries in the source; they are usually repeats but may differ in a detail not shown here. Equal entries are not always repeated. Some of the results follow.

On to “GGGAGGCTGAGGCAGG [G4-1 biotinylated (PQS2)]”, for which the binding signal in the assay on Protein FAM63B (human) was -0.362 z-score; with Protein FAM73B (human), -0.313 z-score; in the assay with Protein NOXP20 (human), -0.354 z-score; in the assay on Protein Niban (human), -0.334 z-score; in the assay on Protein OSCP1 (human), -0.343 z-score; with Protein PPRC1 (human), -0.357 z-score and -0.343 z-score. In addition, the binding signal in assay [1] is -0.272 z-score; in the assay with Protein TEX261 (human) it was -0.34 z-score; with Protein URG4 (human), -0.277 z-score; in assay [2], -0.333 z-score; in [3], -0.329 z-score; in assay [4] it was -0.322 z-score. Besides, the binding signal in assay [5] was -0.311 z-score; in assay [6], -0.327 z-score and -0.326 z-score and -0.272 z-score; with Protein reprimo (human) it was -0.332 z-score; with Protein ripply1 (human), -0.284 z-score; in the assay on Protein shisa-4 (human) it was -0.338 z-score; in assay [7], -0.295 z-score. In addition, the binding signal is -0.335 z-score in assay [8] and -0.283 z-score in assay [9].

The record behind these values is paper PMC5996148.
